Measured values taken from article PMC7364817.
Results are given in words; binding and its absence hold for the method and conditions named. In cells and extracts the contact can be indirect. Here binding means that the protein was enriched with, or labelled near, the bait; the list need not be complete. Where a sequence is shown, tags or fusion partners need not be part of it.

T1: FLAG-tagged SMCR8 (Smith-Magenis Syndrome Chromosome Region, Candidate 8) (UniProt Q8TEV9)
T1 sequence: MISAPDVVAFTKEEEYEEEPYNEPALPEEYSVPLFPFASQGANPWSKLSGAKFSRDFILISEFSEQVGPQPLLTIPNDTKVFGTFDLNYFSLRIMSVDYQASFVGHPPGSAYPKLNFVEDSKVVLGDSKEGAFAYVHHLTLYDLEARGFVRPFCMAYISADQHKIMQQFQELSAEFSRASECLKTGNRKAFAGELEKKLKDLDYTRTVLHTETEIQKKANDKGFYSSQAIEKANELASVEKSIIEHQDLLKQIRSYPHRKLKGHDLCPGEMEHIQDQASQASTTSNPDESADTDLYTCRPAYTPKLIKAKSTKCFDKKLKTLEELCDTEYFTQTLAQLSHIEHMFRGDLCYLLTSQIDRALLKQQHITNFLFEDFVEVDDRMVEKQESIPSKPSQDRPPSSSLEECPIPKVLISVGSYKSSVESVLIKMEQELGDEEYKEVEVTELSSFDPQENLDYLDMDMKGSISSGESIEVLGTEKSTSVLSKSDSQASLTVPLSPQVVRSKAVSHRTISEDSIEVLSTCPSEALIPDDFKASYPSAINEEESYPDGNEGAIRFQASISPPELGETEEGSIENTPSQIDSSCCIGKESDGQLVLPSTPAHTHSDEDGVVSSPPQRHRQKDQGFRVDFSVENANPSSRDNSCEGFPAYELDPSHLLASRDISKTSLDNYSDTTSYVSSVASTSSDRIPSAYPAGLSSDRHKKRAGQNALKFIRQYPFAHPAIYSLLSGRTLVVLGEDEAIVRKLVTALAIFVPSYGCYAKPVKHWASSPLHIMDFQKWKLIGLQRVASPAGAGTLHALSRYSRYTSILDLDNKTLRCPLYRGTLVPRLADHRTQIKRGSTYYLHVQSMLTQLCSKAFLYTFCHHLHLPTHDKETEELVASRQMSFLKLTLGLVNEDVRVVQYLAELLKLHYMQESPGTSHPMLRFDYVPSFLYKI


Target: T1, FLAG-tagged SMCR8 (Smith-Magenis Syndrome Chromosome Region, Candidate 8)
Test: affinity purification with mass spectrometry; FL-SMCR8, C9orf72-FL or empty vector transfected in HEK 293T; α-FLAG agarose IP from whole cell lysates with or without RNase; LC-MS/MS; hits with three or more spectra and not detected in vector only control

Binder | binding
SLC25A22 (protein, UniProt Q9H936 1-323) MADKQISLPAKLINGGIAGLIGVTCVFPIDLAKTRLQNQQNGQRVYTSMSDCLIKTVRSEGYFGMYRGAAVNLTLVTPEKAIKLAANDFFRHQLSKDGQKLTLLKEMLAGCGAGTCQVIVTTPMEMLKIQLQDAGRIAAQRKILAAQGQLSAQGGAQPSVEAPAAPRPTATQLTRDLLRSRGIAGLYKGLGATLLRDVPFSVVYFPLFANLNQLGRPASEEKSPFYVSFLAGCVAGSAAAVAVNPCDVVKTRLQSLQRGVNEDTYSGILDCARKILRHEGPSAFLKGAYCRALVIAPLFGIAQVVYFLGIAESLLGLLQDPQA | binds
FKBP5 (protein, UniProt Q13451 1-457) MTTDEGAKNNEESPTATVAEQGEDITSKKDRGVLKIVKRVGNGEETPMIGDKVYVHYKGKLSNGKKFDSSHDRNEPFVFSLGKGQVIKAWDIGVATMKKGEICHLLCKPEYAYGSAGSLPKIPSNATLFFEIELLDFKGEDLFEDGGIIRRTKRKGEGYSNPNEGATVEIHLEGRCGGRMFDCRDVAFTVGEGEDHDIPIGIDKALEKMQREEQCILYLGPRYGFGEAGKPKFGIEPNAELIYEVTLKSFEKAKESWEMDTKEKLEQAAIVKEKGTVYFKGGKYMQAVIQYGKIVSWLEMEYGLSEKESKASESFLLAAFLNLAMCYLKLREYTKAVECCDKALGLDSANEKGLYRRGEAQLLMNEFESAKGDFEKVLEVNPQNKAARLQISMCQKKAKEHNERDRRIYANMFKKFAEQDAKEEANKAMGKKTSEGVTNEKGTDSQAMEEEKPEGHV | binds
HSD17B4 (protein, UniProt P51659 1-736) MGSPLRFDGRVVLVTGAGAGLGRAYALAFAERGALVVVNDLGGDFKGVGKGSLAADKVVEEIRRRGGKAVANYDSVEEGEKVVKTALDAFGRIDVVVNNAGILRDRSFARISDEDWDIIHRVHLRGSFQVTRAAWEHMKKQKYGRIIMTSSASGIYGNFGQANYSAAKLGLLGLANSLAIEGRKSNIHCNTIAPNAGSRMTQTVMPEDLVEALKPEYVAPLVLWLCHESCEENGGLFEVGAGWIGKLRWERTLGAIVRQKNHPMTPEAVKANWKKICDFENASKPQSIQESTGSIIEVLSKIDSEGGVSANHTSRATSTATSGFAGAIGQKLPPFSYAYTELEAIMYALGVGASIKDPKDLKFIYEGSSDFSCLPTFGVIIGQKSMMGGGLAEIPGLSINFAKVLHGEQYLELYKPLPRAGKLKCEAVVADVLDKGSGVVIIMDVYSYSEKELICHNQFSLFLVGSGGFGGKRTSDKVKVAVAIPNRPPDAVLTDTTSLNQAALYRLSGDWNPLHIDPNFASLAGFDKPILHGLCTFGFSARRVLQQFADNDVSRFKAIKARFAKPVYPGQTLQTEMWKEGNRIHFQTKVQETGDIVISNAYVDLAPTSGTSAKTPSEGGKLQSTFVFEEIGRRLKDIGPEVVKKVNAVFEWHITKGGNIGAKWTIDLKSGSGKVYQGPAKGAADTTIILSDEDFMEVVLGKLDPQKAFFSGRLKARGNIMLSQKLQMILKDYAKL | binds
LAS1L (protein, UniProt Q9Y4W2 1-734) MSWESGAGPGLGSQGMDLVWSAWYGKCVKGKGSLPLSAHGIVVAWLSRAEWDQVTVYLFCDDHKLQRYALNRITVWRSRSGNELPLAVASTADLIRCKLLDVTGGLGTDELRLLYGMALVRFVNLISERKTKFAKVPLKCLAQEVNIPDWIVDLRHELTHKKMPHINDCRRGCYFVLDWLQKTYWCRQLENSLRETWELEEFREGIEEEDQEEDKNIVVDDITEQKPEPQDDGKSTESDVKADGDSKGSEEVDSHCKKALSHKELYERARELLVSYEEEQFTVLEKFRYLPKAIKAWNNPSPRVECVLAELKGVTCENREAVLDAFLDDGFLVPTFEQLAALQIEYEDGQTEVQRGEGTDPKSHKNVDLNDVLVPKPFSQFWQPLLRGLHSQNFTQALLERMLSELPALGISGIRPTYILRWTVELIVANTKTGRNARRFSAGQWEARRGWRLFNCSASLDWPRMVESCLGSPCWASPQLLRIIFKAMGQGLPDEEQEKLLRICSIYTQSGENSLVQEGSEASPIGKSPYTLDSLYWSVKPASSSFGSEAKAQQQEEQGSVNDVKEEEKEEKEVLPDQVEEEEENDDQEEEEEDEDDEDDEEEDRMEVGPFSTGQESPTAENARLLAQKRGALQGSAWQVSSEDVRWDTFPLGRMPGQTEDPAELMLENYDTMYLLDQPVLEQRLEPSTCKTDTLGLSCGVGSGNCSNSSSSNFEGLLWSQGQLHGLKTGLQLF | binds

Next, values leading:

binding | Binder
binds | ALDH18A1 (protein, UniProt P54886 1-795) MLSQVYRCGFQPFNQHLLPWVKCTTVFRSHCIQPSVIRHVRSWSNIPFITVPLSRTHGKSFAHRSELKHAKRIVVKLGSAVVTRGDECGLALGRLASIVEQVSVLQNQGREMMLVTSGAVAFGKQRLRHEILLSQSVRQALHSGQNQLKEMAIPVLEARACAAAGQSGLMALYEAMFTQYSICAAQILVTNLDFHDEQKRRNLNGTLHELLRMNIVPIVNTNDAVVPPAEPNSDLQGVNVISVKDNDSLAARLAVEMKTDLLIVLSDVEGLFDSPPGSDDAKLIDIFYPGDQQSVTFGTKSRVGMGGMEAKVKAALWALQGGTSVVIANGTHPKVSGHVITDIVEGKKVGTFFSEVKPAGPTVEQQGEMARSGGRMLATLEPEQRAEIIHHLADLLTDQRDEILLANKKDLEEAEGRLAAPLLKRLSLSTSKLNSLAIGLRQIAASSQDSVGRVLRRTRIAKNLELEQVTVPIGVLLVIFESRPDCLPQVAALAIASGNGLLLKGGKEAAHSNRILHLLTQEALSIHGVKEAVQLVNTREEVEDLCRLDKMIDLIIPRGSSQLVRDIQKAAKGIPVMGHSEGICHMYVDSEASVDKVTRLVRDSKCEYPAACNALETLLIHRDLLRTPLFDQIIDMLRVEQVKIHAGPKFASYLTFSPSEVKSLRTEYGDLELCIEVVDNVQDAIDHIHKYGSSHTDVIVTEDENTAEFFLQHVDSACVFWNASTRFSDGYRFGLGAEVGISTSRIHARGPVGLEGLLTTKWLLRGKDHVVSDFSEHGSLKYLHENLPIPQRNTN
binds | HPRT1 (protein, UniProt P00492 1-218) MATRSPGVVISDDEPGYDLDLFCIPNHYAEDLERVFIPHGLIMDRTERLARDVMKEMGGHHIVALCVLKGGYKFFADLLDYIKALNRNSDRSIPMTVDFIRLKSYCNDQSTGDIKVIGGDDLSTLTGKNVLIVEDIIDTGKTMQTLLSLVRQYNPKMVKVASLLVKRTPRSVGYKPDFVGFEIPDKFVVGYALDYNEYFRDLNHVCVISETGKAKYKA
binds | COPB2 (protein, UniProt P35606 1-906) MPLRLDIKRKLTARSDRVKSVDLHPTEPWMLASLYNGSVCVWNHETQTLVKTFEVCDLPVRAAKFVARKNWVVTGADDMQIRVFNYNTLERVHMFEAHSDYIRCIAVHPTQPFILTSSDDMLIKLWDWDKKWSCSQVFEGHTHYVMQIVINPKDNNQFASASLDRTIKVWQLGSSSPNFTLEGHEKGVNCIDYYSGGDKPYLISGADDRLVKIWDYQNKTCVQTLEGHAQNVSCASFHPELPIIITGSEDGTVRIWHSSTYRLESTLNYGMERVWCVASLRGSNNVALGYDEGSIIVKLGREEPAMSMDANGKIIWAKHSEVQQANLKAMGDAEIKDGERLPLAVKDMGSCEIYPQTIQHNPNGRFVVVCGDGEYIIYTAMALRNKSFGSAQEFAWAHDSSEYAIRESNSIVKIFKNFKEKKSFKPDFGAESIYGGFLLGVRSVNGLAFYDWDNTELIRRIEIQPKHIFWSDSGELVCIATEESFFILKYLSEKVLAAQETHEGVTEDGIEDAFEVLGEIQEIVKTGLWVGDCFIYTSSVNRLNYYVGGEIVTIAHLDRTMYLLGYIPKDNRLYLGDKELNIISYSLLVSVLEYQTAVMRRDFSMADKVLPTIPKEQRTRVAHFLEKQGFKQQALTVSTDPEHRFELALQLGELKIAYQLAVEAESEQKWKQLAELAISKCQFGLAQECLHHAQDYGGLLLLATASGNANMVNKLAEGAERDGKNNVAFMSYFLQGKVDACLELLIRTGRLPEAAFLARTYLPSQVSRVVKLWRENLSKVNQKAAESLADPTEYENLFPGLKEAFVVEEWVKETHADLWPAKQYPLVTPNEERNVMEEGKDFQPSRSTAQQELDGKPASPTPVIVASHTANKEEKSLLELEVDLDNLELEDIDTTDINLDEDILDD
binds | TECR (protein, UniProt Q9NZ01 1-308) MKHYEVEILDAKTREKLCFLDKVEPHATIAEIKNLFTKTHPQWYPARQSLRLDPKGKSLKDEDVLQKLPVGTTATLYFRDLGAQISWVTVFLTEYAGPLFIYLLFYFRVPFIYGHKYDFTSSRHTVVHLACICHSFHYIKRLLETLFVHRFSHGTMPLRNIFKNCTYYWGFAAWMAYYINHPLYTPPTYGAQQVKLALAIFVICQLGNFSIHMALRDLRPAGSKTRKIPYPTKNPFTWLFLLVSCPNYTYEVGSWIGFAIMTQCLPVALFSLVGFTQMTIWAKGKHRSYLKEFRDYPPLRMPIIPFLL
binds | SPTLC1 (protein, UniProt O15269 1-473) MATATEQWVLVEMVQALYEAPAYHLILEGILILWIIRLLFSKTYKLQERSDLTVKEKEELIEEWQPEPLVPPVPKDHPALNYNIVSGPPSHKTVVNGKECINFASFNFLGLLDNPRVKAAALASLKKYGVGTCGPRGFYGTFDVHLDLEDRLAKFMKTEEAIIYSYGFATIASAIPAYSKRGDIVFVDRAACFAIQKGLQASRSDIKLFKHNDMADLERLLKEQEIEDQKNPRKARVTRRFIVVEGLYMNTGTICPLPELVKLKYKYKARIFLEESLSFGVLGEHGRGVTEHYGINIDDIDLISANMENALASIGGFCCGRSFVIDHQRLSGQGYCFSASLPPLLAAAAIEALNIMEENPGIFAVLKEKCGQIHKALQGISGLKVVGESLSPAFHLQLEESTGSREQDVRLLQEIVDQCMNRSIALTQARYLEKEEKCLPPPSIRVVVTVEQTEEELERAASTIKEVAQAVLL
